Assay [1] concerns the target human IFNγ (human) (UniProt P01579). Kind of assay: SPR (BIACORE), IFNγ captured via immobilized murine D9D10.
Assay [2] shares this target. The assay is described as follows: ELISA, recombinant human IFNγ coated, E. coli periplasmic fractions, detection with rabbit anti-D9D10 scFv serum. (In general: ELISA stands for enzyme-linked immunosorbent assay.)
For assay [3] the target is unchanged. The assay is described as follows: SPR, B1 chip coated with murine D9D10 onto which IFNγ was injected, periplasmic fraction. For orientation: SPR reads the build-up and loss of mass on a sensor chip optically.
Assay [4] shares this target. Kind of assay: ELISA, hIFNγ coated, crude COS supernatant.
Assay [5] has the same target. The assay is described as follows: ELISA, hIFNγ coated, protein A purified antibody.
Assay [6] has the same target. The assay is described as follows: SPR, B1 chip, IFNγ captured via immobilized murine D9D10, crude COS supernatant injected.
Assay [7] shares this target. Kind of assay: SPR, B1 chip coated with murine D9D10 onto which IFNγ was injected, undiluted periplasmic fraction.

By UniProt entry, the sequences of proteins in these tests, tags left out. Residues count along the entry.
UniProt P01579, residues 24-166: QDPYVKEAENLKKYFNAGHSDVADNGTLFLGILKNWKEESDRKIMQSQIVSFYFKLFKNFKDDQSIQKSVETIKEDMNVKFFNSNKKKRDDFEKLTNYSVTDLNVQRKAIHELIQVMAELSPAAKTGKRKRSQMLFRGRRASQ

These are yes or no findings as the source states them, for the method shown. Some results given as binding are weak or reduced against the parent protein; the word gives no strength.

Drawing on patent US20050129693A1, this text covers binding for six molecules.

B1: humanized scFvD9D10 (scFv)
scFv: QVQLVQSGSELKKPGASVKISCKASGYTFTDYGMNWVKQAPGQGLKWMGWINTYTGESTYVDDFKGRFVFSLDTSVSAAYLQISSLKAEDTATYFCARRGFYAMDYWGQGTTVTVSSGGGGSGGGGSGGGGSDIVLTQSPATMSASPGERVTLTCSASSSISYMFWYHQRPGQSPRLLIYDTSNLASGVPARFSGSGSGTSYSLTISRMEPEDFATYFCHQSSSYPFTFGQGTKLEIKRHHHHHH
For B1, the binding result with human IFNγ (human) [1] is recorded as “binds”.

B2: MoTAbI (protein)
chain: QVQLVQSGSELKKPGASVKISCKASGYTFTDYGMNWVKQAPGQGLKWMGWINTYTGESTYVDDFKGRFVFSLDTSVSAAYLQISSLKAEDTATYFCARRGFYAMDYWGQGTTVTVSSGGGGSGGGGSGGGGSDIVLTQSPATMSASPGERVTLTCSASSSISYMFWYHQRPGQSPRLLIYDTSNLASGVPARFSGSGSGTSYSLTISRMEPEDFATYFCHQSSSYPFTFGQGTKLEIKRTPLGDTTHTSGGELEELLKHLKELLKGPRKGELEELLKHLKELLKGTPLGDTTHTSGQVQLVQSGSELKKPGASVKISCKASGYTFTDYGMNWVKQAPGQGLKWMGWINTYTGESTYVDDFKGRFVFSLDTSVSAAYLQISSLKAEDTATYFCARRGFYAMDYWGQGTTVTVSSGGGGSGGGGSGGGGSDIVLTQSPATMSASPGERVTLTCSASSSISYMFWYHQRPGQSPRLLIYDTSNLASGVPARFSGSGSGTSYSLTISRMEPEDFATYFCHQSSSYPFTFGQGTKLEIKRHHHHHH
On to B2, for which the binding entry with human IFNγ (human) [2] was “binds”.

B3: humanized L0 D9D10 triabody (protein)
chain: QVQLVQSGSELKKPGASVKISCKASGYTFTDYGMNWVKQAPGQGLKWMGWINTYTGESTYVDDFKGRFVFSLDTSVSAAYLQISSLKAEDTATYFCARRGFYAMDYWGQGTTVTVSSDIVLTQSPATMSASPGERVTLTCSASSSISYMFWYHQRPGQSPRLLIYDTSNLASGVPARFSGSGSGTSYSLTISRMEPEDFATYFCHQSSSYPFTFGQGTKLEIKRHHHHHH
For B3, the binding result with human IFNγ (human) [3] was “binds”.

B4: humanized D9D10 whole antibody (antibody, human IgG1, kappa, V domains shown)
VH: QVQLVQSGSELKKPGASVKISCKASGYTFTDYGMNWVKQAPGQGLKWMGWINTYTGESTYVDDFKGRFVFSLDTSVSAAYLQISSLKAEDTATYFCARRGFYAMDYWGQGTTVTVSS
VL: DIELTQSPATMSASPGERVTLTCSASSSISYMFWYHQRPGQSPRLLIYDTSNLASGVPARFSGSGSGTSYSLTISRMEPEDFATYFCHQSSSYPFTFGQGTKLEIKR
Regarding B4, the binding result with human IFNγ (human) [4], with human IFNγ (human) [5] and in the assay with human IFNγ (human) [6] was “binds” each time.

B5: humanized L5 D9D10 diabody (protein)
chain: QVQLVQSGSELKKPGASVKISCKASGYTFTDYGMNWVKQAPGQGLKWMGWINTYTGESTYVDDFKGRFVFSLDTSVSAAYLQISSLKAEDTATYFCARRGFYAMDYWGQGTTVTVSSGGGGSDIVLTQSPATMSASPGERVTLTCSASSSISYMFWYHQRPGQSPRLLIYDTSNLASGVPARFSGSGSGTSYSLTISRMEPEDFATYFCHQSSSYPFTFGQGTKLEIKRHHHHHH
On to B5, for which the binding result with human IFNγ (human) [7] was “binds”.

B6: L10 D9D10 diabody (protein)
chain: QVQLVQSGSELKKPGASVKISCKASGYTFTDYGMNWVKQAPGQGLKWMGWINTYTGESTYVDDFKGRFVFSLDTSVSAAYLQISSLKAEDTATYFCARRGFYAMDYWGQGTTVTVSSGGGGSGGGGSDIVLTQSPATMSASPGERVTLTCSASSSISYMFWYHQRPGQSPRLLIYDTSNLASGVPARFSGSGSGTSYSLTISRMEPEDFATYFCHQSSSYPFTFGQGTKLEIKRHHHHHH
Consider B6, for which the binding entry in the assay with human IFNγ (human) [7] is recorded as “binds”.
